Source: article PMC10803754
No constants are given. Whether binding was seen depends on the method and setting. Binding seen in cells or lysates may run through a third protein. These calls come from enrichment with a bait or labelling near it, and not all partners need be listed. Tags and fused reporters may be left off the sequences shown.

By UniProt entry, the sequences of proteins in these tests, tags left out.
UniProt Q8R0K9: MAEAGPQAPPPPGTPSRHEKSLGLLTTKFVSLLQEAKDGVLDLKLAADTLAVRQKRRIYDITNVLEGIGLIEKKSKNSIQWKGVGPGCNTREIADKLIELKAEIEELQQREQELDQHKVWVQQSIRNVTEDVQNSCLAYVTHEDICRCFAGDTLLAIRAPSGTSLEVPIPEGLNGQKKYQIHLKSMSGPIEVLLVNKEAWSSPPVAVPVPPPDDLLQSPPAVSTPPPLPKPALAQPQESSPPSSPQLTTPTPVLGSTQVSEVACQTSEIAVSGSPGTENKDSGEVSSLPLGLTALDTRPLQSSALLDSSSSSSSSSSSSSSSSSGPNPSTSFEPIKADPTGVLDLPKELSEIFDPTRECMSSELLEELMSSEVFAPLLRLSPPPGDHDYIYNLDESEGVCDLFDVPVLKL
UniProt Q61502: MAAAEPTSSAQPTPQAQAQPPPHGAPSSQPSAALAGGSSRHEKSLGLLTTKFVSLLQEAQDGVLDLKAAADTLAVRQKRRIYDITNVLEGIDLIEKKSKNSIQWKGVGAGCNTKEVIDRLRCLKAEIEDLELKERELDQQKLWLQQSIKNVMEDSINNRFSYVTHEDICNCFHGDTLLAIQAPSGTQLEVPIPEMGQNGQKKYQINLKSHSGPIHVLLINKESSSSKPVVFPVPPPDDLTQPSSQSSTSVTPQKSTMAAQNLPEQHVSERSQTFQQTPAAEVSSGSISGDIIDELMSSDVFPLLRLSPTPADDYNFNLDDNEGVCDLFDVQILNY

T1: Multicilin tagged at the N-terminus with 3xFLAG (mouse) (mouse) (UniProt Q3UZ45)
T1 sequence: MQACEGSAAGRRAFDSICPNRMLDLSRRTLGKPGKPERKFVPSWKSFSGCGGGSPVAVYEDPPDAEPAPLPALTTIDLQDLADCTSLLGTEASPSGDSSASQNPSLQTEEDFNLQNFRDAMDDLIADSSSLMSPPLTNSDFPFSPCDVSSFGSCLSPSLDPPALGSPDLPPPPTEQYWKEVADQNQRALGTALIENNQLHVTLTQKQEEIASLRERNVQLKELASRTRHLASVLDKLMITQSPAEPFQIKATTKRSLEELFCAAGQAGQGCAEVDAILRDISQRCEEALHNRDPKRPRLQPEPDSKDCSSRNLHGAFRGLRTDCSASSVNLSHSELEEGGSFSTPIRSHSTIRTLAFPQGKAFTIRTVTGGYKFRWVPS


Target: T1, Multicilin tagged at the N-terminus with 3xFLAG (mouse) (mouse)
Assay: affinity purification with mass spectrometry; FLAG M2 agarose precipitation of 3xFLAG-Multicilin from lysates of MEFs infected with FLAG-MCI or FLAG-MCI+E2f4VP16 adenovirus, two days after infection; lysis buffer 50 mM HEPES-KOH pH 7.5, 500NaCl, 5 mM EDTA, 2% Triton, DNase I; eluted with FLAG peptide; non-infected MEFs as negative control

Molecule | binding
E2F4 (endogenous, MEFs) (from UniProt Q8R0K9 1-410) | binds
Retinoblastoma-like protein 2 (RBL2), mouse (protein, UniProt Q64700 1-1135) MASGGNQSPPPPPAAAASSEEEEEDGDAADRAQPAGSPSHQIQQRFEELCSRLNMDEAARAEAWSSYRSMSESYTLEGNDLHWLACALYVACRKSVPTVSKGTAEGNYVSLTRILRCSEQSLIEFFNKMKKWEDMANLPPHFRERTERLERNFTVSAVIFKKYEPIFQDIFKYPQEEQPRQQRGRKQRRQPCTTSEIFHFCWVLFIYAKGNFPMISDDLVNSYHLLLCALDLVYGNALQCSNRKELVNPNFKGLSEDCHPKDSKASSDPPCVIEKLCSLHDGLVLEAKGIKEHFWKPYIRKLFEKKLLKGKEENLTGFLEPGNFGESFKAVNKAYEEYVLAAGNLDERVFLGEDAEEEVGTLSRCLSAASGTESAERTQMRDILQQHLDKSKALRVCTPLTGVRYVQENSPCVTPVSTAAHSLSRLHTMLSGLRNAPSEKLERILRSCSRDPTQAIADRLKEMYEIYSQHFQPDENFSNCAKEIANKHFRFAEMLYYKVLESVIEQEQKRLGDMDLSGVLEHDAFHRSLLACCLEVVAFSHKPPGNFPFIAEIFDVPHYHFYKVIEVFIRAEDGLCREVVKHLNQIEEQILDHLAWKTKSPLWDRIRDNENRVPTCEEVMPPQNLERTDEIYIAGSPLTPRRVGEVRADAGGLGRSITSPTTLYDRYSSPTVSTTRRRLFENDSPSEGSTSGRIPPQPLVNAVPVQNVPGETVSVTPVPGQTLVTMATATVTANNGQTVTIPVQGIANENGGITFFPVQVNVGGQAQAVAGSIQPLSAQALAGSLSSQQVTGTTLQVPGPVAIQQISPGGQQQNPGQPLTSSSIRPRKTSSLALFFRKVYYLAGVRLRDLCIKLDISDELRKKIWTCFEFSIIQCTELMMDRHLDQLLMCAIYVMAKVTKEDRSFQNIMRCYRTQPQARSQVYRSVLIKGKRRNSGSSESRSHQNSPTELNTDRASRDSSPVMRSNSTLPVPQPSSAPPTPTRLTGASSDVEEEERGDLIQFYNNIYRKQIQAFAMKYSQANAQTDTPPLSPYPFVRTGSPRRVQLSQSHPIYISPHNNEAMPSPREKIFYYFSNSPSKRLREINSMIRTGETPTKKRGILLDDGSESPAKRICPENHSALLRRLQDVANDRGSQ | binds

Other lines, results leading:

binding | Molecule
binds | E2F5 (from UniProt Q61502 1-335)
binds | TFDP-1 (protein, UniProt Q08639 1-410) MAKDASLIEANGELKVFIDQNLSPGKGVVSLVAVHPSTVNTLGKQLLPKTFGQSNVNITQQVVIGTPQRPAASNTIVVGSPHTPNTHFVSQNQTSDSSPWSAGKRNRKGEKNGKGLRHFSMKVCEKVQRKGTTSYNEVADELVAEFSAADNHILPNESAYDQKNIRRRVYDALNVLMAMNIISKEKKEIKWIGLPTNSAQECQNLEVERQRRLERIKQKQSQLQELILQQIAFKNLVQRNRQAEQQARRPPPPNSVIHLPFIIVNTSRKTVIDCSISNDKFEYLFNFDNTFEIHDDIEVLKRMGMACGLESGNCSAEDLKVARSLVPKALEPYVTEMAQGSIGGVFVTTTGSTSNGTRLSASDLSNGADGMLATSSNGSQYSGSRVETPVSYVGEDDDDDDDFNENDEED
